Reference: paper PMC4820689
These are yes or no findings as the source states them, for the method shown. Binding seen in cells or lysates may run through a third protein. Some binding calls cover weakened binding; strength is not graded here. Sequences can lack the tags named with a protein.

Target: T1, pmut3 KcsA (Q58A, T61S, R64D triple mutant) (Streptomyces lividans) (UniProt P0A334)
T1 sequence: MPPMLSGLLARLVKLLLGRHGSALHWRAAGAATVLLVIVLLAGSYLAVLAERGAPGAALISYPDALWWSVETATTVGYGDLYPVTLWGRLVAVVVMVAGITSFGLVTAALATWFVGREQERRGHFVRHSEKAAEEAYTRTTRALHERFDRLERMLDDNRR
Test: pull-down; pmut3 KcsA used as the immobilised channel in the toxin pull-down from venom; data not shown; only the target purified

B1: Tx7335 (peptide, UniProt C0HJT4 1-63)
chain: LECHRRGSFISDGKITCSAKKTFCCKMYEKIFGIYWYGCAKTYTEKNTWNVYSKCCTTNLCNT
In the case of B1, the binding is reported as “binds”.
